Drawing on publication PMC10130090, this text covers binding for nine substances.

By UniProt entry, the sequences of proteins in these tests, tags left out.
UniProt P15884: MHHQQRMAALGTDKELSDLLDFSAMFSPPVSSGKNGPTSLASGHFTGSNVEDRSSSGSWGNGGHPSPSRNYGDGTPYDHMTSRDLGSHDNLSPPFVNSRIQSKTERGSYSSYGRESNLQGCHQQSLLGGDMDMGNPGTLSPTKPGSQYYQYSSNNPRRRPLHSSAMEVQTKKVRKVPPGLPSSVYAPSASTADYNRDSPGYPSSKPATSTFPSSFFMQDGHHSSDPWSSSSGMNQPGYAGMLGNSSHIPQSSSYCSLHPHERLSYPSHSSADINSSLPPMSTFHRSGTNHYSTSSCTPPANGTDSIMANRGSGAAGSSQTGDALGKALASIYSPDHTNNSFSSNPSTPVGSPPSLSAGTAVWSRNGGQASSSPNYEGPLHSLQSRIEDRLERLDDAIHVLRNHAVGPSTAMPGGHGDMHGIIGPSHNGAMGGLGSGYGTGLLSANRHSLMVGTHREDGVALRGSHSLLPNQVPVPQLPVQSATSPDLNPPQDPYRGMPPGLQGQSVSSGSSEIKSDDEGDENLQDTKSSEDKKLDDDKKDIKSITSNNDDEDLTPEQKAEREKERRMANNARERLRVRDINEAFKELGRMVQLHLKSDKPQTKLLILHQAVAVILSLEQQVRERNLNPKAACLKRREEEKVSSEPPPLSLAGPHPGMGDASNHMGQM
UniProt Q04206: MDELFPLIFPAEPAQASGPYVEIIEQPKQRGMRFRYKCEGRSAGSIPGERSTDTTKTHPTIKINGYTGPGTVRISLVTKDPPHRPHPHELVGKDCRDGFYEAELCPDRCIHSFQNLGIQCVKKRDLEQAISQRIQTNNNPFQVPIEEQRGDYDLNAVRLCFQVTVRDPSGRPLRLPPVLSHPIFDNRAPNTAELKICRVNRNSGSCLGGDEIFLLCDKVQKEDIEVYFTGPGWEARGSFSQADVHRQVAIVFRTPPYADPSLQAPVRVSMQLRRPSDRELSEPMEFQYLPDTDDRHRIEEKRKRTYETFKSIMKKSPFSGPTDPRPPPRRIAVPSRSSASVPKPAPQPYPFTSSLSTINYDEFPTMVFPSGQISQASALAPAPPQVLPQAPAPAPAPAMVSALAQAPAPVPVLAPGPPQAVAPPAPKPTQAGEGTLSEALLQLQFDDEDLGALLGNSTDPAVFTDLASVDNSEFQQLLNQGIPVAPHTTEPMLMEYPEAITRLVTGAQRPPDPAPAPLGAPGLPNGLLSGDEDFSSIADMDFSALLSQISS
UniProt O60260: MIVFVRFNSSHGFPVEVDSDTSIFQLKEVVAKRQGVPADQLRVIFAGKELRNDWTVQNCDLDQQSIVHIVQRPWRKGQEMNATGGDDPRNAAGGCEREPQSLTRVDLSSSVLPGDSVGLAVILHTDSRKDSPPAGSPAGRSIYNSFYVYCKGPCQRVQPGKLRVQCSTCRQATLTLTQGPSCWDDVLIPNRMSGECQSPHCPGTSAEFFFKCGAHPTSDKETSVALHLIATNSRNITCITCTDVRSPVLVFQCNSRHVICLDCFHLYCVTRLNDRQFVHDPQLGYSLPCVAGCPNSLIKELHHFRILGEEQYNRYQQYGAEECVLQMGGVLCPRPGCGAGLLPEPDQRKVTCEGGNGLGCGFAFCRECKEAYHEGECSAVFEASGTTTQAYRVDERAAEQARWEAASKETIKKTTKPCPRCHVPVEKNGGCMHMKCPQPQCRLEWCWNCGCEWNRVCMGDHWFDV
UniProt P35222: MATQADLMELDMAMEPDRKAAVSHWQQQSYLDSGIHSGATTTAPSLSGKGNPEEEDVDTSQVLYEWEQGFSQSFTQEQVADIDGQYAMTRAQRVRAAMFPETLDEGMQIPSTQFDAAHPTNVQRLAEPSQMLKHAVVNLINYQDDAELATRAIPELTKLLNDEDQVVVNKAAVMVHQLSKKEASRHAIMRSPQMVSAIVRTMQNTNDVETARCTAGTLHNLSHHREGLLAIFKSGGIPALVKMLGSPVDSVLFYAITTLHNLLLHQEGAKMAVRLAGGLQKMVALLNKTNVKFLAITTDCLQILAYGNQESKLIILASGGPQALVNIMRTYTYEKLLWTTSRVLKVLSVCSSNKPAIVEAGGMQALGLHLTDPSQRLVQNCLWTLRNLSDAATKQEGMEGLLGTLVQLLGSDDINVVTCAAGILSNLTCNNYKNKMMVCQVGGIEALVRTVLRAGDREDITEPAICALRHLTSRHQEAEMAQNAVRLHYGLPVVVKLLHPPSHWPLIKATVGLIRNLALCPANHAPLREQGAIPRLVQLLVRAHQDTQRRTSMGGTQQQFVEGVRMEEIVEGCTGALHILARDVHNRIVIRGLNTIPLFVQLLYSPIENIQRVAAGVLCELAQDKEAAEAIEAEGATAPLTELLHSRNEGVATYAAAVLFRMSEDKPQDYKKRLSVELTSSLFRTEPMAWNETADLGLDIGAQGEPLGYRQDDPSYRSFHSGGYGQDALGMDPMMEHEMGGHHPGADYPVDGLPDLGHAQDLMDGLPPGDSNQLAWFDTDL

The target of test [1] is Myc-ITF2B (UniProt P15884). Kind of test: pull-down; purified tagged proteins (affinity gels, from HEK293T) mixed in a test tube; binding buffer 25 mM HEPES pH 7.4, 150 mM KCl, 12.5 mM MgCl2, 10% glycerol, 1% NP-40, 0.1% BSA, 5 mM DTT, 1 h at 4 °C; pulled-down proteins immunoblotted; both purified. A general note: A western blot detects proteins with antibodies after separation by electrophoresis.

For test [2], the target named is Myc-ITF2B (UniProt P15884). Nature of the test: co-IP; competition: ITF2B co-transfected in HEK293T with two partners, the plasmid of one of them increasing (1, 3 μg); immunoprecipitation-immunoblotting.
In another test the target is pcITF2 (UniProt P15884). The description is as above.
The target in another test is p65 (vector of Fig. 3A) (UniProt Q04206). Kind of test: co-IP; cells transfected with p65 vector, ITF2 vector or both; lysate precipitated with p65 antibody or control IgG, immunoblot.
A further test has as its target Flag-p65 (UniProt Q04206). Nature of the test: pull-down; purified tagged proteins (affinity gels, from HEK293T) mixed in a test tube; binding buffer 25 mM HEPES pH 7.4, 150 mM KCl, 12.5 mM MgCl2, 10% glycerol, 1% NP-40, 0.1% BSA, 5 mM DTT, 1 h at 4 °C; pulled-down proteins immunoblotted; both purified.
The target in another test is F/S-ITF2B (UniProt P15884). Kind of test: co-IP; tagged proteins co-expressed in HEK293T; lysate in 50 mM Tris-HCl pH 7.5, 150 mM NaCl, 1 mM EDTA, 1% Triton X-100, 5% glycerol; precipitated by the tag (α-Myc or α-Flag), immunoblot of the other tag.
Test [3] addresses endogenous ITF2 (UniProt P15884). Kind of test: co-IP; endogenous proteins; with or without TNF stimulation (Supplementary Fig. S10A-E).
Test [4] has the same target. Nature of the test: proximity ligation; Duolink fluorescent reagents, as specified by the manufacturer (Supplementary Fig. S10).

No constants are given. Whether binding was seen depends on the method and setting. For some of these results: Binding seen in cells or lysates may run through a third protein. Some entries that bind do so weakly or less than the wild type.

Consider “F/S-Parkin (from UniProt O60260 1-465) (enzyme)”, for which the binding entry with Myc-ITF2B [1] was “binds”.

Flag-p65 (from UniProt Q04206 1-551): the binding result in the test with Myc-ITF2B [2] and with pcITF2 was “binds” each time.

For the substance “HA-β-catenin (from UniProt P35222 1-781)”, the binding entry with Myc-ITF2B [2] is “binds”.

Take “ITF2 (vector of Fig. 3A) (from UniProt P15884 1-667)”: the binding result with p65 (vector of Fig. 3A) is listed as “binds”.

On to Myc-ITF2B (from UniProt P15884 1-667), for which, in the test with Flag-p65, the binding entry is listed as “binds”.

For “Myc-PRKN (from UniProt O60260 1-465) (enzyme)”, the binding result with pcITF2 and in the test with F/S-ITF2B was “binds” throughout.

As to “endogenous Parkin (from UniProt O60260 1-465) (enzyme)”, the binding result with endogenous ITF2 [3] and with endogenous ITF2 [4] was “binds” each time.

“endogenous p65 (from UniProt Q04206 1-551)”: the binding entry with endogenous ITF2 [3] and in the test with endogenous ITF2 [4] was “binds” in each case.

As for p-p65 (from UniProt Q04206 1-551), in the test with endogenous ITF2 [3], the binding entry was “binds”.
